From PMC7819943, “Rice protein-binding microarrays: a tool to detect cis-acting elements near promoter regions in rice”
The list shows a part of the results.

By UniProt entry, the sequences of proteins in these tests, tags left out.
UniProt Q0JBA9, entry or part of it: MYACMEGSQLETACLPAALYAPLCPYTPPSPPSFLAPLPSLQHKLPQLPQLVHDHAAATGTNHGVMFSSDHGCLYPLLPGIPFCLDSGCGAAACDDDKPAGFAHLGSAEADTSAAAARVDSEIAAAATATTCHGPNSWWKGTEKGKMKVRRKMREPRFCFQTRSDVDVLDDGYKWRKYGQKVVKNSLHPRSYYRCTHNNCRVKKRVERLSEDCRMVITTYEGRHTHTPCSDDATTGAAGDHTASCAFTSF

biological target: OsWRKY34 (Oryza sativa, UniProt Q0JBA9 1-250); assay: protein-binding microarray (RPBM); PBS, 2% BSA, 51.3 ng/ul salmon testes DNA, 50 uM zinc acetate, 200 nM TF, 25 C, 1 h; high values mean tight binding; settings: protein: recombinant; tags: N-terminal polyhistidine and DsRed monomer fusion (pET32a); label: CyDye5-dUTP incorporated in the synthesized complementary strand; 3' TTTTT single-stranded linker to array surface; dsDNA, one strand shown
Summary of the method: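 Transcription factors were made in E. coli BL21-CodonPlus as N-terminal fusions to a polyhistidine tag and DsRed, then purified on Ni–NTA. After primer extension with Cy5-dUTP and blocking with 2% BSA, a custom Agilent array was exposed for 1 h at 25 °C to 200 nM protein in PBS, 2% BSA, salmon testes DNA and 50 µM zinc acetate. Washed arrays were scanned on an Axon 4000B, and the binding signal is per-feature fluorescence intensity in arbitrary units.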

Question: “CATATGTTTTGTTTTGCTTTGGGGCTTTTAGTAGTAGTTCCGGAGTCACCTAGTGCAG” was tested. Which binding signal did it give?
Answer: Its binding signal is 9460 fluorescence intensity (a.u.).

Question: “CTGCTTACAATATTTGACCATTCGTTTTATTTGAAAAATTCGGAGTCACCTAGTGCAG” was tested. Which binding signal did it give?
Answer: The binding signal was 11000 fluorescence intensity (a.u.).

Question: With “TTTTGAGGATTTTTTTTTCGAGGTGGTTTTGTTTGCCTCTCGGAGTCACCTAGTGCAG” as the sequence, how does the binding signal read?
Answer: Its binding signal is 8700 fluorescence intensity (a.u.).

Question: With “CTTGCAATCGTCCGGCCTCCATCATCTCTTTATCAATTTGCGGAGTCACCTAGTGCAG” as the sequence, how does the binding signal read?
Answer: Its binding signal is 8410 fluorescence intensity (a.u.).

Question: “AGTATCTTTGCCATTTGACCTACATTTGACCTATACGTACCGGAGTCACCTAGTGCAG” was tested. Which binding signal did it give?
Answer: Its binding signal is 11000 fluorescence intensity (a.u.).

Question: With “ACTTATCCCATCAATCACTTCTAATTTAAATTTGTCTCTTCGGAGTCACCTAGTGCAG” as the sequence, how does the binding signal read?
Answer: Its binding signal is 11000 fluorescence intensity (a.u.).

Question: “GGGAGATGGGGTTCAAAGCGAGGGAGGGTGGTGGCCTCTTCGGAGTCACCTAGTGCAG” was tested. Which binding signal did it give?
Answer: The binding signal was 10700 fluorescence intensity (a.u.).

Question: For “TCTCTCTCTCTCTCTCGTCTTCTCCGATCGCGGCGGAATGCGGAGTCACCTAGTGCAG”, which binding signal is on record?
Answer: The binding signal was 8400 fluorescence intensity (a.u.).

Question: How did the binding signal turn out when “TCCACTACTCTCTCTCTCCAGATCTCGCCCCACCGCCATGCGGAGTCACCTAGTGCAG” was run?
Answer: Its binding signal is 8390 fluorescence intensity (a.u.).

Question: With “AGCTGAAGCTGTTCCAAACATGCCCCTACTTCTCGTTCTACGGAGTCACCTAGTGCAG” as the sequence, how does the binding signal read?
Answer: Its binding signal is 9370 fluorescence intensity (a.u.).

Question: How did the binding signal turn out when “TGCTGGTGGTGTCAATTTCGTCCATTTTGGACCGCTGACGCGGAGTCACCTAGTGCAG” was run?
Answer: The binding signal was 8580 fluorescence intensity (a.u.).

Question: Which binding signal does the source give for “TTCGTCCCATACTGTGCCCTTGCAAATATATGGAGGTTCCCGGAGTCACCTAGTGCAG” here?
Answer: The binding signal was 10100 fluorescence intensity (a.u.).

Question: For “TCCTGTTGCTGCTTCTGCCTCTCTCACATCTTCTTTCTTTCGGAGTCACCTAGTGCAG”, which binding signal is on record?
Answer: The binding signal was 10900 fluorescence intensity (a.u.).

Question: How did the binding signal turn out when “GAGTTGCGATATTTTAGACCGGGGATGGATGGATGGATGGCGGAGTCACCTAGTGCAG” was run?
Answer: The binding signal was 8190 fluorescence intensity (a.u.).

Question: Which binding signal does the source give for “GGCGGCGGCGGCAGGGGCGGCGGAGGGTTGGCGGCGGCGGCGGAGTCACCTAGTGCAG” here?
Answer: Its binding signal is 11000 fluorescence intensity (a.u.).

Question: Which binding signal does the source give for “ATAATAATTGACTATTCATAGTGCATATTTTCTGACTTTCCGGAGTCACCTAGTGCAG” here?
Answer: Its binding signal is 8480 fluorescence intensity (a.u.).

Question: How did the binding signal turn out when “GGGATGGATGGAGTATGATAGGATATGAAACATTTATACGCGGAGTCACCTAGTGCAG” was run?
Answer: The binding signal was 9000 fluorescence intensity (a.u.).

Question: For “TCGGGTCCGATCTCTTTATTGCTTTGGTTAGTTTGATTCGCGGAGTCACCTAGTGCAG”, which binding signal is on record?
Answer: The binding signal was 9210 fluorescence intensity (a.u.).

Question: For “CAGATTGTTTTCCATGATTCTTAGCCTCTCTGATGTTTGACGGAGTCACCTAGTGCAG”, which binding signal is on record?
Answer: The binding signal was 9640 fluorescence intensity (a.u.).

Question: Which binding signal does the source give for “TTGTTGATTTTTCTCTATGCTCTTTTCTCCCGTGAAAAAACGGAGTCACCTAGTGCAG” here?
Answer: Its binding signal is 9340 fluorescence intensity (a.u.).

Question: For “CGTAGCAGCCCAAACGTGTTCAACCAACGCAGCAAGTTTCCGGAGTCACCTAGTGCAG”, which binding signal is on record?
Answer: Its binding signal is 8940 fluorescence intensity (a.u.).

Question: “GAGAGATGGGGAAAAGGGATGGGTAGATAGATATTAGGTACGGAGTCACCTAGTGCAG” was tested. Which binding signal did it give?
Answer: Its binding signal is 10800 fluorescence intensity (a.u.).

Question: Which binding signal does the source give for “TCCATCTTCCAGGCCTGCCCACTAGACATTTCCCATGGATCGGAGTCACCTAGTGCAG” here?
Answer: The binding signal was 8590 fluorescence intensity (a.u.).

Question: “CATCAGGATCACTTTTTTCCTTCTAAGTTCTACACTCCAACGGAGTCACCTAGTGCAG” was tested. Which binding signal did it give?
Answer: Its binding signal is 8950 fluorescence intensity (a.u.).

Question: With “GCACGCAAGCACGCCTCTCGTCGCGTTCCGTTTCGTTGCGCGGAGTCACCTAGTGCAG” as the sequence, how does the binding signal read?
Answer: Its binding signal is 10500 fluorescence intensity (a.u.).

Question: With “CCCGTATTTCCTAGGCCGTATACCGTATCCTCCTCGTCACCGGAGTCACCTAGTGCAG” as the sequence, how does the binding signal read?
Answer: The binding signal was 11400 fluorescence intensity (a.u.).

Question: “CTGTTTTGCCATTGAAGTCTTATGAATTTTTCTTTTTTTACGGAGTCACCTAGTGCAG” was tested. Which binding signal did it give?
Answer: Its binding signal is 9100 fluorescence intensity (a.u.).

Question: For “TAAGTTGAGGGATCTCTGGTGAACTTATTCCACCCACTATCGGAGTCACCTAGTGCAG”, which binding signal is on record?
Answer: Its binding signal is 8240 fluorescence intensity (a.u.).

Question: Which binding signal does the source give for “ATGTCTGCTACTGAACACTGCTCTTCCATTTCTACCATTTCGGAGTCACCTAGTGCAG” here?
Answer: The binding signal was 9250 fluorescence intensity (a.u.).

Question: “TATGAGTTTCCGTGTCCAACTTTAATCGTTCGTCTTATTTCGGAGTCACCTAGTGCAG” was tested. Which binding signal did it give?
Answer: The binding signal was 8590 fluorescence intensity (a.u.).

Question: “CGGAGAGATAGATTGGTTGGTTGCGAGGGCGAGGCGGCGGCGGAGTCACCTAGTGCAG” was tested. Which binding signal did it give?
Answer: The binding signal was 8230 fluorescence intensity (a.u.).

Question: “TTTTTTTCTTGGGCTGGGTCCGCTGGGATTTATGTTTACACGGAGTCACCTAGTGCAG” was tested. Which binding signal did it give?
Answer: The binding signal was 12700 fluorescence intensity (a.u.).

Question: Which binding signal does the source give for “TGCGTACATATAAGTTTCATATCGGGGTTGTGGAAGTCCACGGAGTCACCTAGTGCAG” here?
Answer: Its binding signal is 9900 fluorescence intensity (a.u.).

Question: How did the binding signal turn out when “AAAATGATCCGGTTTCTCTGCCACAAAGCCTGAGGCCTCGCGGAGTCACCTAGTGCAG” was run?
Answer: The binding signal was 9990 fluorescence intensity (a.u.).

Question: With “CCCCAACTTATCGTGTGTATTCATTCCTATTTGCAATTCACGGAGTCACCTAGTGCAG” as the sequence, how does the binding signal read?
Answer: Its binding signal is 9050 fluorescence intensity (a.u.).

Question: “AGCTTCTGTTCTGGAAATTTGCCTTAACCTTGATACTGATCGGAGTCACCTAGTGCAG” was tested. Which binding signal did it give?
Answer: Its binding signal is 8080 fluorescence intensity (a.u.).

Question: For “CACCTCTGCGCCCCTCGTCGCACCACCACCACCGAGTCATCGGAGTCACCTAGTGCAG”, which binding signal is on record?
Answer: Its binding signal is 8100 fluorescence intensity (a.u.).

Question: With “TTCGTGTTGCAGTTTGTCTTGTGATTTTGTTAAACTTAGGCGGAGTCACCTAGTGCAG” as the sequence, how does the binding signal read?
Answer: Its binding signal is 8830 fluorescence intensity (a.u.).

Question: With “TAGACGGATTATGTATTTTTTTTTGTTATTAGACTACGTTCGGAGTCACCTAGTGCAG” as the sequence, how does the binding signal read?
Answer: Its binding signal is 8060 fluorescence intensity (a.u.).

Question: How did the binding signal turn out when “TTTTTTTCTCACGTCTTTCGTTGTCGCGCCATTTATTCCCCGGAGTCACCTAGTGCAG” was run?
Answer: Its binding signal is 10200 fluorescence intensity (a.u.).

Question: With “AGTAGTAGTGGTACAAGTGGTGGTTGTCGTCGTCGTAGTCCGGAGTCACCTAGTGCAG” as the sequence, how does the binding signal read?
Answer: Its binding signal is 10100 fluorescence intensity (a.u.).

Question: Which binding signal does the source give for “CGAGGGAGAGGGGAGAGGGGAGTGCGGCGGGTGAGGCGGGCGGAGTCACCTAGTGCAG” here?
Answer: The binding signal was 9650 fluorescence intensity (a.u.).
